The values that follow come from PubChem BioAssay AID328 (DTP/NCI, 2004).

The experiment has as its system BDF1 mice, P388 leukemia ip, median survival T/C. As to the kind of experiment: NCI In Vivo Anticancer Drug Screen. Data for tumor model P388 Leukemia (intraperitoneal) in B6D2F1 (BDF1) mice. The following applies: T/C endpoint: median survival time, higher T/C = longer survival. The method in brief:
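Transplantable tumour in mice; compound vs vehicle dosing; survival scored; ratio of treated to control reported.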

Where [1] appears, read: dose: 100.0 mg/kg/injection, schedule: Q01DX009 (ip), vehicle: Klucel (hydroxypropylcellulose) (HPC).
Where [2] appears, read: dose: 200.0 mg/kg/injection, schedule: Q01DX001 (ip), vehicle: Klucel (hydroxypropylcellulose) (HPC).
Where [3] appears, read: dose: 200.0 mg/kg/injection, schedule: Q04DX003 (ip), vehicle: water.

The list is a part of this screen's results and no random one: it gathers tests that were run many times, whatever their T/C, doses with no T/C, and many T/C values between a quarter and a half above the control. Other doses and runs of a compound stand elsewhere. T/C is the treated group as % of the vehicle group. Some entries give survivors of the animals treated and no T/C: the source files T/C as zero there, which appears to mark a toxic dose or a test without result, not a measured value. Some doses without a T/C left all or most animals alive at the check, yet need not have been tolerated: the source hardly ever lists a survival T/C far under the control, and the zero likely stands for such cases as well. Counts of survivors are from the toxicity check (mostly the fifth day) where no day follows; animals may have died later. Schedule codes are those of the source, taken here to give the interval after Q, in days (D) or hours (H), and the number of doses after X. Additions like (4×) give the number of equal values in this list. Where survival is the endpoint, the PubChem record calls one and a half times the control and up active, and a quarter to a half above the control has no call in these data; cut-offs in other NCI protocols can differ. Some entries hold several experiments; the results are listed from low to high. Some T/C values are followed by the survivors on the day toxicity was checked, most often the fifth; where none is given, no animal had died by that day.

With `COc1cc2c(cc1OC)C(OC)N(C)c1c-2ccc2cc3c(cc12)OCO3` (stereo not given), the survivor count runs as follows: (dose: 0.59 mg/kg/injection, schedule: Q01DX009 (ip), vehicle: saline with Tween-80) 2 of 6 (2×); (dose: 20.0 mg/kg/injection, schedule: Q01DX009 (ip), vehicle: saline with Tween-80) 6 of 6; (dose: 160.0 mg/kg/injection, schedule: Q04DX003 (ip), vehicle: saline) 6 of 6; (dose: 175.0 mg/kg/injection, schedule: Q01DX009 (ip), vehicle: Klucel (hydroxypropylcellulose) (HPC)) 5 of 6 (2×); (dose: 240.0 mg/kg/injection, schedule: Q01DX009 (ip), vehicle: saline with Tween-80) 4 of 6; (dose: 350.0 mg/kg/injection, schedule: Q01DX009 (ip), vehicle: Klucel (hydroxypropylcellulose) (HPC)) 4 of 6 (2×). In addition, the T/C is, setting by setting: (dose: 0.88 mg/kg/injection, schedule: Q01DX009 (ip), vehicle: saline with Tween-80) 129 % of control (2×); (dose: 1.33 mg/kg/injection, schedule: Q01DX009 (ip), vehicle: saline with Tween-80) 125 % of control (2×); (dose: 1.6 mg/kg/injection, schedule: Q01DX009 (ip), vehicle: water) 136 % of control; (dose: 2.0 mg/kg/injection, schedule: Q01DX009 (ip), vehicle: saline with Tween-80) 127 % of control (2×); (dose: 2.2 mg/kg/injection, schedule: Q04DX003 (ip), vehicle: saline with Tween-80) 131 % of control (2×); (dose: 3.3 mg/kg/injection, schedule: Q04DX003 (ip), vehicle: saline with Tween-80) 136 % of control (2×). The T/C (dose: 4.4 mg/kg/injection, schedule: Q04DX003 (ip), vehicle: other) is 145 % of control (2×); the T/C (dose: 6.6 mg/kg/injection, schedule: Q04DX003 (ip), vehicle: other) is 145 % of control (2×); the T/C (dose: 34.0 mg/kg/injection, schedule: Q01DX009 (ip), vehicle: saline with Tween-80) is 145 % of control; the T/C under setting [1] was 130 % of control [4 of 6 alive] (2×); the T/C (dose: 100.0 mg/kg/injection, schedule: Q04DX002 (ip), vehicle: Klucel (hydroxypropylcellulose) (HPC)) is 139 % of control; the T/C (dose: 400.0 mg/kg/injection, schedule: Q04DX002 (ip), vehicle: Klucel (hydroxypropylcellulose) (HPC)) was 146 % of control.
For `CCCCCCCCCCCCNCCCCCCCCCCCC`, the survivor count (dose: 4.0 mg/kg/injection, schedule: Q01DX010 (ip), vehicle: water) is 6 of 6; the survivor count (dose: 28.0 mg/kg/injection, schedule: Q01DX009 (ip), vehicle: Klucel (hydroxypropylcellulose) (HPC)) is given as 4 of 6; the survivor count (dose: 40.0 mg/kg/injection, schedule: Q01DX009 (ip), vehicle: Klucel (hydroxypropylcellulose) (HPC)) is given as 0 of 6; the survivor count (dose: 130.0 mg/kg/injection, schedule: Q01DX001 (ip), vehicle: Klucel (hydroxypropylcellulose) (HPC)) was 1 of 6; the survivor count under setting [2] is listed as 2 of 6; the survivor count (dose: 300.0 mg/kg/injection, schedule: Q01DX001 (ip), vehicle: Klucel (hydroxypropylcellulose) (HPC)) is 1 of 6. Besides, under setting [2], the T/C is 133 % of control.
Turning to `COc1cccc2c1C(=O)c1c(O)c3c(c(O)c1C2=O)C[C@@](O)(/C=N\O)C[C@@H]3OC1CC(N)C(O)C(C)O1` (stereo not given in full), the T/C runs as follows: (dose: 12.5 mg/kg/injection, schedule: Q04DX003 (ip), vehicle: water) 128 % of control; (dose: 25.0 mg/kg/injection, schedule: Q04DX003 (ip), vehicle: water) 138 % of control; (dose: 50.0 mg/kg/injection, schedule: Q04DX003 (ip), vehicle: water) 147 % of control; (dose: 100.0 mg/kg/injection, schedule: Q04DX003 (ip), vehicle: water) 147 % of control [2 of 3 alive]. Moreover, the survivor count under setting [3] was 1 of 3.
Consider `COC(=O)c1c(-c2ccccc2)c(-c2ccccc2)nn(-c2ccccc2)c1=O`, for which the T/C reads like this: (dose: 100.0 mg/kg/injection, schedule: Q01DX001 (ip), vehicle: saline with Tween-80) 125 % of control; (dose: 200.0 mg/kg/injection, schedule: Q01DX001 (ip), vehicle: saline with Tween-80) 132 % of control.
As to `C[As](C)(=S)[As](C)(C)=S`, the survivor count (dose: 50.0 mg/kg/injection, schedule: Q01DX009 (ip), vehicle: saline with Tween-80) is on record as 2 of 6.
With `O=C1c2ccc(O)cc2C(=O)c2ccc(O)cc21`, the T/C was 140 % of control (dose: 100.0 mg/kg/injection, schedule: Q01DX009 (ip), vehicle: saline with Tween-80) and 125 % of control (dose: 200.0 mg/kg/injection, schedule: Q01DX009 (ip), vehicle: saline with Tween-80).
Turning to `CCOC(=O)CCSc1ccccc1`, the survivor count (dose: 100.0 mg/kg/injection, schedule: Q04DX003 (ip), vehicle: saline with Tween-80) is listed as 3 of 6.
`COc1ccc2cc3[n+](cc2c1OC)CCc1cc2c(cc1-3)OCO2`: the survivor count is on record as 2 of 4 (dose: 4.0 mg/kg/injection, schedule: Q01DX010 (ip), vehicle: steroid suspending solution) and 2 of 6 (dose: 24.0 mg/kg/injection, schedule: Q01DX010 (ip), vehicle: saline). The T/C (dose: 8.0 mg/kg/injection, schedule: Q01DX010 (ip), vehicle: steroid suspending solution) was 140 % of control and the T/C (dose: 12.0 mg/kg/injection, schedule: Q01DX010 (ip), vehicle: saline) was 131 % of control.
As to `[O-][n+]1ccccc1Br`, the survivor count under setting [3] is on record as 4 of 6 and the survivor count (dose: 400.0 mg/kg/injection, schedule: Q04DX003 (ip), vehicle: water) was 0 of 6.
As for `CCOC(=O)/C=C/c1c[nH]c(=O)[nH]c1=O`, the survivor count (dose: 400.0 mg/kg/injection, schedule: Q01DX009 (ip), vehicle: saline) is 2 of 6.
Take `COc1ccc(/C=C/C(=O)c2ccc(OC)c(OC)c2)cc1O`: the survivor count reads like this: (dose: 100.0 mg/kg/injection, schedule: Q04DX003 (ip), vehicle: saline) 6 of 6; (dose: 200.0 mg/kg/injection, schedule: Q04DX003 (ip), vehicle: saline) 6 of 6; (dose: 400.0 mg/kg/injection, schedule: Q04DX003 (ip), vehicle: saline) 6 of 6.
Consider `COC(=O)c1ccccc1NC(=O)CCl`, for which the survivor count (dose: 200.0 mg/kg/injection, schedule: Q04DX003 (ip), vehicle: saline with Tween-80) is 6 of 6.
In the case of `Clc1ccc2c(c1)Cc1cc(N=Cc3ccccc3Cl)ccc1-2`, the survivor count (dose: 42.5 mg/kg/injection, schedule: Q01DX001 (ip), vehicle: saline with Tween-80) was 6 of 6 and the survivor count (dose: 85.0 mg/kg/injection, schedule: Q01DX001 (ip), vehicle: saline with Tween-80) was 6 of 6.
Regarding `CCCCCCCCCCCC[N+](C)(C)Cc1ccccc1`, the T/C (dose: 3.12 mg/kg/injection, schedule: Q01DX009 (ip), vehicle: saline) was 127 and 133 % of control; the T/C (dose: 4.68 mg/kg/injection, schedule: Q01DX009 (ip), vehicle: saline) was 142 % of control. In addition, the survivor count runs as follows: (dose: 6.6 mg/kg/injection, schedule: Q01DX009 (ip), vehicle: saline) 0 of 6; (dose: 7.0 mg/kg/injection, schedule: Q04DX003 (ip), vehicle: saline) 4 of 6; (dose: 10.0 mg/kg/injection, schedule: Q01DX009 (ip), vehicle: saline) 0 of 6; (dose: 14.0 mg/kg/injection, schedule: Q04DX003 (ip), vehicle: saline) 4 of 6; (dose: 15.0 mg/kg/injection, schedule: Q01DX009 (ip), vehicle: saline) 0 of 6.
Consider `COc1cc(OC)c2c[n+](C)c3c4cc(OC)c(OC)cc4ccc3c2c1`, for which the T/C (dose: 6.25 mg/kg/injection, schedule: Q01DX009 (ip), vehicle: Klucel (hydroxypropylcellulose) (HPC)) was 144 % of control. For the same compound, under setting [1], the survivor count is given as 6 of 6.
In the case of `COc1cc(-c2ccc(Nc3ccccc3C(=O)O)c(OC)c2)ccc1Nc1ccccc1C(=O)O`, the T/C was 129 % of control (dose: 12.5 mg/kg/injection, schedule: Q01DX010 (ip), vehicle: saline) and 133 % of control (dose: 25.0 mg/kg/injection, schedule: Q01DX010 (ip), vehicle: saline).
